Reference: the supplement of paper PMC12067093, “Discovery and optimisation of a covalent ligand for TRIM25 and its application to targeted protein ubiquitination” (Chemical Science, 2025)
The list shows a part of the results.

The chains behind the UniProt entries cited, without tags or fusion partners. Where a name states a change or a piece, a line headed by the entry shows the natural chain unless it says otherwise.
UniProt Q9UHI6: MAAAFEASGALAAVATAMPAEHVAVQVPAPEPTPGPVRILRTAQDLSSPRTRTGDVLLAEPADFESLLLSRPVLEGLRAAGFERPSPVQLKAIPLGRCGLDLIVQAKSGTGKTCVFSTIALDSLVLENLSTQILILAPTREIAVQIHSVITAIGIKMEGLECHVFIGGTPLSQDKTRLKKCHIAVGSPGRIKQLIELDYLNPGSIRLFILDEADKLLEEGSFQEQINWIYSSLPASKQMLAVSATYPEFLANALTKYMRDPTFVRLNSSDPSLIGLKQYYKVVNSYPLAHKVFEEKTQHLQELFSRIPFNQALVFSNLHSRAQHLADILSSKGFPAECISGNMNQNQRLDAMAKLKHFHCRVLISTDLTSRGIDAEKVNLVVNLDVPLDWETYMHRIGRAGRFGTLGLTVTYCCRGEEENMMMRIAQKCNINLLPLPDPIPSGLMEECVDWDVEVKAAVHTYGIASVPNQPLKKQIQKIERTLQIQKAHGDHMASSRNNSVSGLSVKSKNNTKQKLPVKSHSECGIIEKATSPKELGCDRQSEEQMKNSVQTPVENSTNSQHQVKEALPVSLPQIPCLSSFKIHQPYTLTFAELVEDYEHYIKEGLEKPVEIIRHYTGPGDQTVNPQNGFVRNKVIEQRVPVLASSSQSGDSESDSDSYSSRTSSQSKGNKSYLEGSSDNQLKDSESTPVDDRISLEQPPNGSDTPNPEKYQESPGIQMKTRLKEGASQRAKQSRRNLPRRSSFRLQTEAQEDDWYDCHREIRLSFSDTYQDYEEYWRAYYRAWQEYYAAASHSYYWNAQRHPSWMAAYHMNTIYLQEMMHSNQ
UniProt Q6P3S1: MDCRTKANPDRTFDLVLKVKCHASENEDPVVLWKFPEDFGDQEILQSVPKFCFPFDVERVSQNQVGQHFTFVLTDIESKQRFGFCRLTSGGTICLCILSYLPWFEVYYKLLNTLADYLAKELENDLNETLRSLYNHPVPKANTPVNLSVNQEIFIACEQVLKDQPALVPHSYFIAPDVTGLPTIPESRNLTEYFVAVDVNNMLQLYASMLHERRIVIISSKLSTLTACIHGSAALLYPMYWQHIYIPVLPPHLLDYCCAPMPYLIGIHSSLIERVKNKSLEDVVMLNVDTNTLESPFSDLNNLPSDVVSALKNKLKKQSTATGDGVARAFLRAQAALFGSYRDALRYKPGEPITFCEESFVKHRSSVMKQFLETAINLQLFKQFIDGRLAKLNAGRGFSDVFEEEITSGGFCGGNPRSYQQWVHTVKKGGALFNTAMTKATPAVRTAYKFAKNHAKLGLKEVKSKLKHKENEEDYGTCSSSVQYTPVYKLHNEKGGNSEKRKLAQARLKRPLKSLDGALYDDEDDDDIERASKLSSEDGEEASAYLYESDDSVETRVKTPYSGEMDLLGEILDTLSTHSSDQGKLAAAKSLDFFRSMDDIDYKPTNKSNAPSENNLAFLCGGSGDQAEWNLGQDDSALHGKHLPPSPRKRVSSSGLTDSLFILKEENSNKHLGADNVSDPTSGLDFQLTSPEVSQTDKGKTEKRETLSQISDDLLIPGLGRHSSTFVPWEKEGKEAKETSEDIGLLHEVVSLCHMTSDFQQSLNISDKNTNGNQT
UniProt Q96GQ7: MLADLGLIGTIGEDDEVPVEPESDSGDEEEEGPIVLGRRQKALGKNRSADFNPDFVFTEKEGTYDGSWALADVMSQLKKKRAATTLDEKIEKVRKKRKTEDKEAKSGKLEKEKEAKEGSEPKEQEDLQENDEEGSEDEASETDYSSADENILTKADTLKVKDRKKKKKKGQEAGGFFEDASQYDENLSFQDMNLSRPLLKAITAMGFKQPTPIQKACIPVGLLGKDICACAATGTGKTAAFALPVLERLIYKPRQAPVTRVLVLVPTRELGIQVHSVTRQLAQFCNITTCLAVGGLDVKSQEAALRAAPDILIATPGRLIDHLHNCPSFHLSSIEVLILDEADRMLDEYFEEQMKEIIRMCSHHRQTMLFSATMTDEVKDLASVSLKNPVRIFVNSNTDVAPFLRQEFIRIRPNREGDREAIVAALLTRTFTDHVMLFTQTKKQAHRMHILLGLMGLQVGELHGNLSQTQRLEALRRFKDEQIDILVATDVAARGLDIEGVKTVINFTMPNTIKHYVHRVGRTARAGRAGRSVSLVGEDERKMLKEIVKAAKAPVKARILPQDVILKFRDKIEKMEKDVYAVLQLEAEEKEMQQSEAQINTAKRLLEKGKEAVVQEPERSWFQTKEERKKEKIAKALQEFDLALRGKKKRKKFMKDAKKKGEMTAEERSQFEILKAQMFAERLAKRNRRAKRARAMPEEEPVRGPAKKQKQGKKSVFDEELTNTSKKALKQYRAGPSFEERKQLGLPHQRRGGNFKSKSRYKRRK
UniProt Q7Z401: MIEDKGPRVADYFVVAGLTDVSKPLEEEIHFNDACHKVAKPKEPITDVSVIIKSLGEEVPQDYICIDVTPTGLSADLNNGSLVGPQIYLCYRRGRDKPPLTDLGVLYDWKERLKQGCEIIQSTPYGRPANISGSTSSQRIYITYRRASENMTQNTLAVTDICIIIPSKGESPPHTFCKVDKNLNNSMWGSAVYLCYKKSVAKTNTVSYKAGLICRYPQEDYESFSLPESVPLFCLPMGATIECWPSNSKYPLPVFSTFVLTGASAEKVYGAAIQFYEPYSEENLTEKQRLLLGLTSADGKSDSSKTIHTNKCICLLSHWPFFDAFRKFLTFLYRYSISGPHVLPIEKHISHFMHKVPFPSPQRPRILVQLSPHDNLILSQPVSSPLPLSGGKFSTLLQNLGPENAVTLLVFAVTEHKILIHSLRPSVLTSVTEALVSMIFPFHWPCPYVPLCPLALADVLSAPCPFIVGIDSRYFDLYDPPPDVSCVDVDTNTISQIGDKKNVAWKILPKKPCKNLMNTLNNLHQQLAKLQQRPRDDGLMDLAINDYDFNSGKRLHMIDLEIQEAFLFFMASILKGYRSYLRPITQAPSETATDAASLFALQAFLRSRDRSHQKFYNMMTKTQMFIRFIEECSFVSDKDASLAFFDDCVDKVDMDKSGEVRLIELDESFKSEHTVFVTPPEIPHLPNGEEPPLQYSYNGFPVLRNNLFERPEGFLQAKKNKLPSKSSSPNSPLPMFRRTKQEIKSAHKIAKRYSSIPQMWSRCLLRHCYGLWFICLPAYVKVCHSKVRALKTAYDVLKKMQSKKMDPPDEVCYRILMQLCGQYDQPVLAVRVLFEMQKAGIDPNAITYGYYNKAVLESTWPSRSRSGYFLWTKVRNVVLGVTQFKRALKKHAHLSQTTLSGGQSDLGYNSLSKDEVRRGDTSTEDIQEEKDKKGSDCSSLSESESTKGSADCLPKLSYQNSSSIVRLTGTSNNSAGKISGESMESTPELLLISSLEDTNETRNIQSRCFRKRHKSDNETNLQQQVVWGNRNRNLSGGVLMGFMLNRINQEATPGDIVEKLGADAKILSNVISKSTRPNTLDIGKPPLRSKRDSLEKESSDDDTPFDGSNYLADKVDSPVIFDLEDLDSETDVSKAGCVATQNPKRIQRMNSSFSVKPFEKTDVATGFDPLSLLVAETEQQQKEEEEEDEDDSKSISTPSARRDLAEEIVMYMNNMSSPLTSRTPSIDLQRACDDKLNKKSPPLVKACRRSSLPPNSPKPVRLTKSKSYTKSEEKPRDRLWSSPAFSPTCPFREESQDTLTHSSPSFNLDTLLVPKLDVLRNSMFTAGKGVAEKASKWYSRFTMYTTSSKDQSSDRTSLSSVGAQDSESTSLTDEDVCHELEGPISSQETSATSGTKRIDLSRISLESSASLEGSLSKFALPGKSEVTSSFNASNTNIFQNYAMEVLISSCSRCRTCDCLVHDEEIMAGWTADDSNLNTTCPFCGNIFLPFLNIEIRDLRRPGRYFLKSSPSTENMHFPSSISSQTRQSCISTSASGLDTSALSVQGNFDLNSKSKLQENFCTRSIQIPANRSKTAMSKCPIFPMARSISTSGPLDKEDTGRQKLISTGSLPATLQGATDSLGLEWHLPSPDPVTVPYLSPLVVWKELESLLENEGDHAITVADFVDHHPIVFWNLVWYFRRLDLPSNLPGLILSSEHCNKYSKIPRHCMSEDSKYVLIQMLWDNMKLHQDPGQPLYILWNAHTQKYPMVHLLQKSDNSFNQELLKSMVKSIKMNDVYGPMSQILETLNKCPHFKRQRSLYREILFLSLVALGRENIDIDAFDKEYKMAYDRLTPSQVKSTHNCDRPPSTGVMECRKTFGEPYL
UniProt Q16531, whole entry, looked up: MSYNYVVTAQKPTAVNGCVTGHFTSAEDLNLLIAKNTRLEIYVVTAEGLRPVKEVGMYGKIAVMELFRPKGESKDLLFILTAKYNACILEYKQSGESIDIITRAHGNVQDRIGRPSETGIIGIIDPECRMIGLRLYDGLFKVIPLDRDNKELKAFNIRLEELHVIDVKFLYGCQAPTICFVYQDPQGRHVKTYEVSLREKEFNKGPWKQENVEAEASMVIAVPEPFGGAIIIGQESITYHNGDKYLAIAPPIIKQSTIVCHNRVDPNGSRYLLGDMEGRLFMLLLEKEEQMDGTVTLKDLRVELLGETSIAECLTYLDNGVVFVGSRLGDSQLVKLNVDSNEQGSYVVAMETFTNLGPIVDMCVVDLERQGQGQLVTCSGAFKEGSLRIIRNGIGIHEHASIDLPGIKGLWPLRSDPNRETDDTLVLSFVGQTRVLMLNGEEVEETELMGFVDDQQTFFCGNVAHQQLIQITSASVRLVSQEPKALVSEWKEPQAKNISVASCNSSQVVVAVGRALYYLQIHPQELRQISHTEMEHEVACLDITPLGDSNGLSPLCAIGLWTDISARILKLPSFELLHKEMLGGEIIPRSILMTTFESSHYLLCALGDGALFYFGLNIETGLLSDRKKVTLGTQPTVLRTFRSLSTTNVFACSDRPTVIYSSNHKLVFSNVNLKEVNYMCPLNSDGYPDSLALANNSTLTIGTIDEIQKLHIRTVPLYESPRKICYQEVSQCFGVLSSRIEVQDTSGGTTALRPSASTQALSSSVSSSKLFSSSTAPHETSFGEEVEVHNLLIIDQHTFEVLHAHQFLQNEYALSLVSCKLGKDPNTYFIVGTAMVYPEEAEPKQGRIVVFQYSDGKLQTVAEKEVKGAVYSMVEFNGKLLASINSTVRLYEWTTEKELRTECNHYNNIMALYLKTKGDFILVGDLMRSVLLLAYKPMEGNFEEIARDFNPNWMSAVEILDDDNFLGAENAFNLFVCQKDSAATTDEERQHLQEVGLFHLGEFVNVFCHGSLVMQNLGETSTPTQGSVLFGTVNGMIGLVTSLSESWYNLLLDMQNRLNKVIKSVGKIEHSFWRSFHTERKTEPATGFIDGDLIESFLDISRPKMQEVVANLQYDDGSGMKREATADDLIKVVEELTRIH
UniProt Q7L014: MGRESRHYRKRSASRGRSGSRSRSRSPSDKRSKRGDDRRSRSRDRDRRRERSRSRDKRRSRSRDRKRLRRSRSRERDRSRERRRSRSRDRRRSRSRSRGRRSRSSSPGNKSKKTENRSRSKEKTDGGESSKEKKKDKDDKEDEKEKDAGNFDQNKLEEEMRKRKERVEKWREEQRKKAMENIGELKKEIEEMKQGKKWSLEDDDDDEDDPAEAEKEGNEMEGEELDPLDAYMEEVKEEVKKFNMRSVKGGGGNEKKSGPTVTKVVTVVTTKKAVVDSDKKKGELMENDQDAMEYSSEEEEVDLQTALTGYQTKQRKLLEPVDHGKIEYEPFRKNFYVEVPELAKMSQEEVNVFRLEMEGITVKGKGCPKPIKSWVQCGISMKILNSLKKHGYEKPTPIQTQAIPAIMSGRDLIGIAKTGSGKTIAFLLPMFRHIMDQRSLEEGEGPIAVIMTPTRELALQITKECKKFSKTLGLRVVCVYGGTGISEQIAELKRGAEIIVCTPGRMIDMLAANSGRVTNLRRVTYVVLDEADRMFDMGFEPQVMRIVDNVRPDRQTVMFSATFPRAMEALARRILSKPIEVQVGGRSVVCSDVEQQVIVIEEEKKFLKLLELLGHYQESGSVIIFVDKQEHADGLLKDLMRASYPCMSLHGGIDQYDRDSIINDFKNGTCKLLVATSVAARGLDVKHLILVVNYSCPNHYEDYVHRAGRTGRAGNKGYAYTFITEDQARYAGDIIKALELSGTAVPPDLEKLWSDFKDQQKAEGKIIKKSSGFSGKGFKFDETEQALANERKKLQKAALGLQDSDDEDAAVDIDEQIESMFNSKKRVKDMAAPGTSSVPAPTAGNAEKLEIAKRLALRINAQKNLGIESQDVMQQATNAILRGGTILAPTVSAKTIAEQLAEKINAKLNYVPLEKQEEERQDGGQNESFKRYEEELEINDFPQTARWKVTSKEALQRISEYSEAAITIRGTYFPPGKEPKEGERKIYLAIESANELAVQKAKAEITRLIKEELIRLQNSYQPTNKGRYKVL

compound: Cc1cc(ccc1-c1ccccc1)C(=O)N1CCCN(CC1)C(=O)CCl [compound 10]; experiment: probe-labelled cysteine peptide fold change vs DMSO (competition) (log2 fold change); higher = less target engagement (more negative = stronger competition); conditions: 50 µM; THP-1; incubation time: 4 h
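Note: competitive profiling in live THP-1 cells: cysteine peptides tagged with an iodoacetamide desthiobiotin (IA-DTB) probe, intensity after compound treatment relative to DMSO-treated cells.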

| Target | probe-labelled cysteine peptide fold change |
| --- | --- |
| DDX20_Q9UHI6_758_LQTEAQEDDWYDCHR (UniProt Q9UHI6) | -0.439 |
| DENND1B_Q6P3S1_52_FCFPFDVER (UniProt Q6P3S1) | 0.0235 |
| DDX27_Q96GQ7_259_DICACAATGTGK (UniProt Q96GQ7) | -0.0602 |
| DDX39A_O00148_164_NCPHVVVGTPGR (UniProt O00148) | 0.179 |
| DENND4A_Q7Z401_1843_STHNCDRPPSTGVMECR (UniProt Q7Z401) | -0.573 |
| DDB1_Q16531_128_PSETGIIGIIDPECR (UniProt Q16531) | 0.0729 |
| DENND4C_Q5VZ89_955_MQTEEVCDASAIVAK (UniProt Q5VZ89) | -0.113 |
| DDB1_Q16531_903_ELRTECNHYNNIMALYLK (UniProt Q16531) | -0.592 |
| DDX39A_O00148_62+86_AIVDCGFEHPSEVQHECIPQAILGMDVLCQAK (UniProt O00148) | 0.0973 |
| DDHD2_O94830_207+227_RGVENISVDIHCGEPLQIDHLVFVVHGIGPACDLR (UniProt O94830) | 0.142 |
| DDX46_Q7L014_377_SWVQCGISMK (UniProt Q7L014) | -0.155 |
